In US20180237497A1 one finds binding data, which are given here for 1 substance.

The chains behind the UniProt entries cited, without tags or fusion partners. Where a name states a change or a piece, a line headed by the entry shows the natural chain unless it says otherwise. Residues count along the entry.
UniProt P01344, residues 25-180: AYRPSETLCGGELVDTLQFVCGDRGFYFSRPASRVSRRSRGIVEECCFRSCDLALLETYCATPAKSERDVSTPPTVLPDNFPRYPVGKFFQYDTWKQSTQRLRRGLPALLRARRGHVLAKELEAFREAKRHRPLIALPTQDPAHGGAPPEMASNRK
UniProt P11717: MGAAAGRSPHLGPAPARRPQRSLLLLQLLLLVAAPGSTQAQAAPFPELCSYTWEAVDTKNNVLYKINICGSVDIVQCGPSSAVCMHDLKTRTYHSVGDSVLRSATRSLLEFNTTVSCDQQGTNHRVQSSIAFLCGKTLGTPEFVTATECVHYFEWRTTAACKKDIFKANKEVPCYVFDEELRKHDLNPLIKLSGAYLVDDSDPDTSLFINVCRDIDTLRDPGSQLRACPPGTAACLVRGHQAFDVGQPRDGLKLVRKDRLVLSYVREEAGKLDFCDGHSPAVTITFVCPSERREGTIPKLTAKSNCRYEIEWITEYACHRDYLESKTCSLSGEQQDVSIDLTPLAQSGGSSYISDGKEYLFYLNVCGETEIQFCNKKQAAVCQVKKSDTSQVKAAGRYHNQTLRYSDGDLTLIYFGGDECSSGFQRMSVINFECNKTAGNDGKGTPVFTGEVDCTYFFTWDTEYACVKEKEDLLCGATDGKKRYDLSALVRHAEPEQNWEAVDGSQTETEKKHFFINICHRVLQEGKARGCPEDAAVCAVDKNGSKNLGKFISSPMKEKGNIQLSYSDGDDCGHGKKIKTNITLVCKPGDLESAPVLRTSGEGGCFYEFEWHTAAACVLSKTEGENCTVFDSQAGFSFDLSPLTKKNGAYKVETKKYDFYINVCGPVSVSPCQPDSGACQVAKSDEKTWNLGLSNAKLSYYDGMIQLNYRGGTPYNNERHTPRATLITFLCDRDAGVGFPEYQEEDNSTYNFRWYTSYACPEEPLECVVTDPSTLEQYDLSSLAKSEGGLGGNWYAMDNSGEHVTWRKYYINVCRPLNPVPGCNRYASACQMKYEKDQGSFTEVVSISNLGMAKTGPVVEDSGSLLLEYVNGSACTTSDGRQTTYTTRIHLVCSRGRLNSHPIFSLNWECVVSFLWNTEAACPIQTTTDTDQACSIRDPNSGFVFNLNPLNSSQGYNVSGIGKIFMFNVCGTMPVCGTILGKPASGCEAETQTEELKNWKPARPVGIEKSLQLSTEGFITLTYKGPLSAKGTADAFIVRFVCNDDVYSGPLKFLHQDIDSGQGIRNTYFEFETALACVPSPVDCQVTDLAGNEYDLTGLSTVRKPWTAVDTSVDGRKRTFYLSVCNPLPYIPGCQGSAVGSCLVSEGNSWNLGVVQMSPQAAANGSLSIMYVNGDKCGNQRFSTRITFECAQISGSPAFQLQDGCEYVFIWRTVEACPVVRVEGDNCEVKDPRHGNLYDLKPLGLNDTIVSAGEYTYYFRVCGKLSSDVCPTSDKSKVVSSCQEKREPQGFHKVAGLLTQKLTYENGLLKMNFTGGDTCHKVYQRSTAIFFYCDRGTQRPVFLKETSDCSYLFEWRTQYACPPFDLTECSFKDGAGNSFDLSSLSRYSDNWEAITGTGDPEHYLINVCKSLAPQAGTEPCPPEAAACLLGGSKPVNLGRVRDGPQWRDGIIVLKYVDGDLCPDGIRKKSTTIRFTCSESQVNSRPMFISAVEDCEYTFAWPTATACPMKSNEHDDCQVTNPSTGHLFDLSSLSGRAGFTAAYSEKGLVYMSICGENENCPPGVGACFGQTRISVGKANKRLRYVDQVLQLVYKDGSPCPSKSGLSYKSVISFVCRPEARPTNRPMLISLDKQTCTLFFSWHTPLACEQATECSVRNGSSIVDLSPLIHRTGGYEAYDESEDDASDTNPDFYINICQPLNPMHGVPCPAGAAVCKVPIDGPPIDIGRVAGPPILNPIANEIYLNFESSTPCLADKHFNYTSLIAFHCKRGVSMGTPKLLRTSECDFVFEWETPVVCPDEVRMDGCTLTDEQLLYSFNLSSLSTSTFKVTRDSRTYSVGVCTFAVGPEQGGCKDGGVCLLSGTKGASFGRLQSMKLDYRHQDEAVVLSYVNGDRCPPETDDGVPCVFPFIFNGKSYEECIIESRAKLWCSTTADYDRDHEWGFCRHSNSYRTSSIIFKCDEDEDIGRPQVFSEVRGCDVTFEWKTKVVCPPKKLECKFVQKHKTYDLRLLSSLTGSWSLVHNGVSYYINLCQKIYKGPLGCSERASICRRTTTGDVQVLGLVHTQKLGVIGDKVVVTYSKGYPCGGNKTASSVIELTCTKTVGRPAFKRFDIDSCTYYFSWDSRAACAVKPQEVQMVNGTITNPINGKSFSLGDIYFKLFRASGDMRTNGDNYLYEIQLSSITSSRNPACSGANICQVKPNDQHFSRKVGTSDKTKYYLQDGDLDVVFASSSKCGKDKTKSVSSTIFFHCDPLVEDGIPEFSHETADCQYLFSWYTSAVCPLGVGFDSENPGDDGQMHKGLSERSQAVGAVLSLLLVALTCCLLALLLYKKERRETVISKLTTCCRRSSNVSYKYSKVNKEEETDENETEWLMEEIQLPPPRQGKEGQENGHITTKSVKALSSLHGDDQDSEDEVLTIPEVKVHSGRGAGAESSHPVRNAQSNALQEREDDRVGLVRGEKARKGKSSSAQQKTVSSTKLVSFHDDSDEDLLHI

The target of this test is pro-IGF2^1-156 (UniProt P01344). The experiment in a line: SPR, antibody capture. On the technique in general: In SPR one partner is held on a chip, and binding of the other changes the refractive index at the surface.

No constants are given. Whether binding was seen depends on the method and setting. Some binding calls cover weakened binding; strength is not graded here.

As to “Fc-domain 11^I1572A fusion protein (from UniProt P11717 1511-1650) (Fc fusion)”, the binding entry is listed as “binds”.
